{
  "source": "patent US12312419B2",
  "about": "“Hemiasterlin derivative having cysteine residue” (priority 2019, dated 2025)",
  "test_system": "porcine tubulin",
  "experiment": "Evaluation of activity for inhibiting microtubule polymerization using porcine tubulins (2)",
  "format": "biochemical",
  "conditions": "compound 9.1 μM; 60 minutes after assay initiation; relative to wells without compound; lower = stronger inhibition",
  "procedure": "Using a tubulin polymerization inhibition assay kit (catalog number: BK006P) purchased from Cytoskeleton Inc., the polymerization inhibitory activity of compounds of Examples with a concentration of 9.1 μM was evaluated in accordance with the protocol appended to the kit. To a 96 well microplate, 80 mM PIPES pH 6.9, 2 mM MgCl, 0.5 mM EGTA and 5% DMSO buffered solution of the compound to be evaluated was added in an amount of 10 μL for each well, and to these wells, 3 mg/mL porcine tubulin 80 mM PIPES pH 6.9, 2 mM MgCl, 0.5 mM EGTA, 1 mM GTP and 10.2% glycerol solution was added in an amount of 100 μL for each well. In order to examine a state in which tubulins polymerize over time, the absorbance at 340 nm was measured at 37° C., using a microplate reader. As the polymerization of tubulins progresses, the absorbance at 340 nm rises.\nThe tubulin polymerization inhibitory activity was evaluated based on the proportion of polymerized tubulins 60 minutes after the assay initiation. Specifically, the microtubule polymerization rate (%) was calculated by dividing the absorbance of tubulins that had polymerized at wells to which the compound had been added by the absorbance of tubulins that had polymerized at wells to which the compound had not been added, and multiplying the obtained value by 100.",
  "note": "At least one compound was matched to its structure with a doubt left.",
  "data": [
    {"smiles": "CN[C@H](C(=O)N[C@H](C(=O)N(C)[C@H](/C=C(\\C)C(=O)NCCCC[C@@H](NC(=O)CCCN1C(=O)CC(SC[C@H](N)C(=O)O)C1=O)C(=O)O)C(C)C)C(C)(C)C)C(C)(C)c1cn(C)c2ccccc12", "note": "(stereo partly shown) [Example MM5]", "values": [
      {"measurement": "Microtubule polymerization rate (%)", "value": 2, "unit": "%"}
    ]}
  ]
}
